Reference: patent US20050124586A1, “Alpha-substituted arylalkyl phosphonate derivatives” (priority 2002, published 2005)
Some results were stated once for a whole list of compounds, not compound by compound. For at least one compound, name, drawing or mass did not settle the structure.

The molecules below were run on apo (a) (assay: apo (a) production in primary cultures of Cynomolgus hepatocytes (ELISA)). Conditions: 20 μM test compound, 6-24 hours incubation.
Format: cell-based, Cynomolgus monkey

Which “lowering of apo (a) secretion, change in apo (a) concentration in culture medium as percentage of control” value does the source give for `CCOP(=O)(OCC)C(Cc1cccnc1)c1cc(OC)c(O)c(OC)c1` (stereo not drawn) [Compound 2, Diethyl α-(3,5-dimethoxy-4-hydroxyphenyl)-β-(3-pyridyl) Ethylphosphonate] here?
Its value is −25% to −45.

Which “lowering of apo (a) secretion, change in apo (a) concentration in culture medium as percentage of control” value does the source give for `COc1cc(C(Cc2cccnc2)P(=O)(OC(C)C)OC(C)C)cc(OC)c1O` (stereo not drawn) [Compound 3, diisopropyl α-(3,5-dimethoxy-4-hydroxyphenyl)-β-(3-pyridyl) ethylphosphonate] here?
Its value is −25% to −45.

`CCOP(=O)(OCC)C(Cc1ccc(C)nc1)c1cc(OC)c(O)c(OC)c1` (stereo not drawn) [Compound 4, Diethyl α-(3,5-dimethoxy-4-hydroxyphenyl)-β-(5-(2-methylpyridyl)) ethylphosphonate] was tested. Which “lowering of apo (a) secretion, change in apo (a) concentration in culture medium as percentage of control” value did it give?
Its value is −25% to −45.

Which “lowering of apo (a) secretion, change in apo (a) concentration in culture medium as percentage of control” value does the source give for `CCOP(=O)(OCC)C(Cc1cccnc1C)c1cc(OC)c(O)c(OC)c1` (stereo not drawn) [Compound 5, diethyl α-(3,5-dimethoxy-4-hydroxyphenyl)-β-(3-(2-methylpyridyl) ethylphosphonate] here?
The value was −25% to −45.

`CCOP(=O)(OCC)C(Cc1ccc(C)nc1C)c1cc(OC)c(O)c(OC)c1` (stereo not drawn) [Compound 6, Diethyl α-(3,5-dimethoxy-4-hydroxyphenyl)-β-(3-(2,6-dimethylpyridyl)) ethyl-phosphonate] was tested. Which “lowering of apo (a) secretion, change in apo (a) concentration in culture medium as percentage of control” value did it give?
Its value is −25% to −45.

Which “lowering of apo (a) secretion, change in apo (a) concentration in culture medium as percentage of control” value does the source give for `COc1cc(C(Cc2cccnc2)P(=O)(OC)OC)cc(C)c1O` (stereo not drawn) [Compound 8, Dimethyl α-(4-hydroxy-3-methoxy-5-methylphenyl)-1-(3-pyridyl)ethyl phosphonate] here?
Its value is −15 to −25%.

With `CCOP(=O)(OCC)C(Cc1cccnc1)c1cc(C)c(O)c(OC)c1` (stereo not drawn) [Compound 9, Diethyl α-(4-hydroxy-3-methoxy-5-methylphenyl)-β-(3-pyridyl)ethyl phosphonate] as the molecule, how does the “lowering of apo (a) secretion, change in apo (a) concentration in culture medium as percentage of control” value read?
The value was −25% to −45.

Which “lowering of apo (a) secretion, change in apo (a) concentration in culture medium as percentage of control” value does the source give for `COc1cc(C(Cc2cccnc2)P(=O)(OC(C)C)OC(C)C)cc(C)c1O` (stereo not drawn) [Compound 10, diisopropyl α-(4-hydroxy-3-methoxy-5-methylphenyl)-β-(3-pyridyl) ethylphosphonate] here?
Its value is −25% to −45.

Which “lowering of apo (a) secretion, change in apo (a) concentration in culture medium as percentage of control” value does the source give for `COc1cc(C(Cc2ccc(C)nc2)P(=O)(OC)OC)cc(C)c1O` (stereo not drawn) [Compound 11, Dimethyl α-(4-hydroxy-3-methoxy-5-methylphenyl)-β-(5(2-methylpyridyl))ethyl phosphonate] here?
Its value is −15 to −25%.

For `CCOP(=O)(OCC)C(Cc1ccc(C)nc1)c1cc(C)c(O)c(OC)c1` (stereo not drawn) [Compound 12, Diethyl α-(4-hydroxy-3-methoxy-5-methylphenyl)-β-(5-(2-methylpyridyl))ethyl phosphonate], which “lowering of apo (a) secretion, change in apo (a) concentration in culture medium as percentage of control” value is on record?
The value was −25% to −45.

With `COc1cc(C(Cc2ccc(C)nc2)P(=O)(OC(C)C)OC(C)C)cc(C)c1O` (stereo not drawn) [Compound 13, diisopropyl α-(4-hydroxy-3-methoxy-5-methylphenyl)-β-(5-(2-methylpyridyl)) ethylphosphonate] as the molecule, how does the “lowering of apo (a) secretion, change in apo (a) concentration in culture medium as percentage of control” value read?
Its value is −25% to −45.

`COc1cc(C(Cc2cccnc2C)P(=O)(OC)OC)cc(C)c1O` (stereo not drawn) [Compound 14] was tested. Which “lowering of apo (a) secretion, change in apo (a) concentration in culture medium as percentage of control” value did it give?
The value was −15 to −25%.

How did the “lowering of apo (a) secretion, change in apo (a) concentration in culture medium as percentage of control” value turn out when `CCOP(=O)(OCC)C(Cc1cccnc1C)c1cc(C)c(O)c(OC)c1` (stereo not drawn) [Compound 15, Diethyl α-(4-hydroxy-3-methoxy-5-methylphenyl)-β-(3-(2-methylpyridyl))ethyl phosphonate] was run?
Its value is −25% to −45.

Which “lowering of apo (a) secretion, change in apo (a) concentration in culture medium as percentage of control” value does the source give for `CCOP(=O)(OCC)C(Cc1ccc(C)nc1C)c1cc(C)c(O)c(OC)c1` (stereo not drawn) [Compound 16, Diethyl α-(4-hydroxy-3-methoxy-5-methylphenyl)-β-(3-(2,6-dimethylpyridyl))ethyl phosphonate] here?
Its value is −25% to −45.

How did the “lowering of apo (a) secretion, change in apo (a) concentration in culture medium as percentage of control” value turn out when `CCOP(=O)(OCC)C(Cc1c(C)noc1C)c1cc(C)c(O)c(OC)c1` (stereo not drawn) [Compound 17, Diethyl α-(4-hydroxy-3-methoxy-5-methylphenyl)-β-(4-(3,5-dimethylisoxazolyl)) ethylphosphonate] was run?
The value was −25% to −45.

For `CCOP(=O)(OCC)C(Cc1csc(C)n1)c1cc(C)c(O)c(OC)c1` (stereo not drawn) [Compound 18, Diethyl α-(4-hydroxy-3-methoxy-5-methylphenyl)-β-(4-(2-methylthiazolyl))ethyl phosphonate], which “lowering of apo (a) secretion, change in apo (a) concentration in culture medium as percentage of control” value is on record?
The value was −25% to −45.

The molecules below were run on Lp(a) (assay: In vivo plasma Lp(a) lowering in male cynomolgus monkeys). Conditions: oral gavage, doses between 25 and 50 mg/kg/day, values measured at Day 14 or 21, male cynomolgus monkeys.
Design: species or system cynomolgus monkey

With `CCOP(=O)(OCC)C(Cc1cccnc1)c1cc(OC)c(O)c(OC)c1` (stereo not drawn) [Compound 2, Diethyl α-(3,5-dimethoxy-4-hydroxyphenyl)-β-(3-pyridyl) Ethylphosphonate] as the molecule, how does the “lowering of plasma Lp(a), % changes from pre-dose at Day -1” value read?
Its value is −15% to −19.

How did the “lowering of plasma Lp(a), % changes from pre-dose at Day -1” value turn out when `CCOP(=O)(OCC)C(Cc1ccc(C)nc1)c1cc(OC)c(O)c(OC)c1` (stereo not drawn) [Compound 4, Diethyl α-(3,5-dimethoxy-4-hydroxyphenyl)-β-(5-(2-methylpyridyl)) ethylphosphonate] was run?
Its value is −15% to −19.
